Source: patent publication US20060229302A1, “Tricyclic indole derivatives and their use in the treatment of alzheimer's disease” (priority 2003, published 2006)
pIC50: −log10 of the molar value. Where a name gives a salt, the structure may show the parent alone. Some of these results come from one statement about several compounds together.

Amino acid sequences for entries named in this document (tags omitted). Residues count along the entry.
UniProt P56817, 46-501: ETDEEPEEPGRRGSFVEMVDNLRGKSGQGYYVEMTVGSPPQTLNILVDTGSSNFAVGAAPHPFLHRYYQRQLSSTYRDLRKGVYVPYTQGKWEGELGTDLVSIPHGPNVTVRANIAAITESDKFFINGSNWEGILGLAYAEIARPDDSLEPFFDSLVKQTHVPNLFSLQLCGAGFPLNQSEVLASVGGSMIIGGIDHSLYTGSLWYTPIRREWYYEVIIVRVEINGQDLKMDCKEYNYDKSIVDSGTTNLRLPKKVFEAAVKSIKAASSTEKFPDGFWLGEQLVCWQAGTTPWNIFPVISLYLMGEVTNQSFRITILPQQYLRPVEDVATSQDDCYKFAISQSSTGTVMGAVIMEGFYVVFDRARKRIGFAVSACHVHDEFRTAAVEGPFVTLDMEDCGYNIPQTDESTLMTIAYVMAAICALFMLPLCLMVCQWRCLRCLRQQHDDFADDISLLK

What follows are compounds tested against Asp-2 (Homo sapiens, UniProt P56817) (assay: Asp-2 inhibitory assay). Details: FAM-[SEVNLDAEFK]-TAMRA substrate, pH 4.5, 1 h room temperature; read-out: inhibition in the Asp-2 inhibitory assay.
Format: biochemical
Work on `CCc1cn2c3c(cc(C(=O)N[C@@H](Cc4cccc(F)c4)[C@H](O)CNC4CC4)cc13)N(C)S(=O)(=O)CC2` [Example E34, N-{(1S,2R)-3-(Cyclopropylamino)-1-[(3-fluorophenyl)methyl]-2-hydroxypropyl}-7-ethyl-1-methyl-3,4-dihydro-1H-[1,2,5]thiadiazepino[3,4,5-hi]indole-9-carboxamide 2,2-dioxide formate salt] yielded a pIC50 greater than 5.00.
Compound `CCc1cn2c3c(cc(C(=O)N[C@@H](Cc4ccccc4)[C@H](O)CNC(C)(C)C)cc13)N(C)S(=O)(=O)CC2` [Example E43, N-[(1S,2R)-3-[(1,1-Dimethylethyl)amino]-2-hydroxy-1-(phenylmethyl)propyl]-7-ethyl-1-methyl-3,4-dihydro-1H-[1,2,5]thiadiazepino[3,4,5-hi]indole-9-carboxamide 2,2-dioxide] has a pIC50 greater than 5.00.
`CCc1cn2c3c(cc(C(=O)N[C@@H](Cc4ccccc4)[C@H](O)CNC(C)C)cc13)N(C)S(=O)(=O)C2` [Example E85, 6-Ethyl-N-[(1S,2R)-2-hydroxy-3-[(1-methylethyl)amino]-1-(phenylmethyl)propyl]-1-methyl-1H-[1,2,5]thiadiazino[3,4,5-hi]indole-8-carboxamide 2,2-dioxide formate salt] showed a pIC50 greater than 5.00.
In the case of `CCc1cn2c3c(cc(C(=O)N[C@@H](Cc4ccccc4)[C@H](O)CNC4CCOC(C)(C)C4)cc13)N(C)S(=O)(=O)CC2` (stereo partly drawn) [Example E42, N-[(1S,2R)-3-[(2,2-Dimethyltetrahydro-2H-pyran-4-yl)amino]-2-hydroxy-1-(phenylmethyl)propyl]-7-ethyl-1-methyl-3,4-dihydro-1H-[1,2,5]thiadiazepino[3,4,5-hi]indole-9-carboxamide 2,2-dioxide], the pIC50 was greater than 5.00.
Work on `CCCc1cn2c3c(cc(C(=O)N[C@@H](Cc4ccccc4)[C@H](O)CNC4CCCCC4)cc13)N(C)S(=O)(=O)CC2` [Example E45, N-[(1S,2R)-3-(Cyclohexylamino)-2-hydroxy-1-(phenylmethyl)propyl]-1-methyl-7-propyl-3,4-dihydro-1H-[1,2,5]thiadiazepino[3,4,5-hi]indole-9-carboxamide 2,2-dioxide formate salt] yielded a pIC50 greater than 5.00.
`CCCc1cn2c3c(cc(C(=O)N[C@@H](Cc4ccccc4)[C@H](O)CNC4CCOCC4)cc13)N(CC)S(=O)(=O)CC2` [Example E50, 1-Ethyl-N-[(1S,2R)-2-hydroxy-1-(phenylmethyl)-3-(tetrahydro-2H-pyran-4-ylamino)propyl]-7-propyl-3,4-dihydro-1H-[1,2,5]thiadiazepino[3,4,5-hi]indole-9-carboxamide 2,2-dioxide formate salt] was tested, and the pIC50 was greater than 5.00.
For `CCCCNC[C@@H](O)[C@H](Cc1ccccc1)NC(=O)c1cc2c3c(c1)c(CC)cn3CCS(=O)(=O)N2C` [Example E56, N-[(1S,2R)-3-(Butylamino)-2-hydroxy-1-(phenylmethyl)propyl]-7-ethyl-1-methyl-3,4-dihydro-1H-[1,2,5]thiadiazepino[3,4,5-hi]indole-9-carboxamide 2,2-dioxide formate salt], the pIC50 was greater than 5.00.
For `CCc1cn2c3c(cc(C(=O)N[C@@H](Cc4ccccc4)[C@H](O)CNC(C)(C)CCCC(C)C)cc13)N(C)S(=O)(=O)C(C)C2` (stereo partly drawn) [Example E9, 7-Ethyl-N-{(1S,2R)-2-hydroxy-1-(phenylmethyl)-3-[(1,1,5-trimethylhexyl)amino]propyl}-1,3-dimethyl-3,4-dihydro-1H-[1,2,5]thiadiazepino[3,4,5-hi]indole-9-carboxamide 2,2-dioxide formate salt], the pIC50 was greater than 5.00.
`CCc1cn2c3c(cc(C(=O)N[C@@H](Cc4ccccc4)[C@H](O)CNC4CCCCC4)cc13)N(C)S(=O)(=O)C(C)C2` (stereo partly drawn) [Example E8, N-[(1S,2R)-3-(Cyclohexylamino)-2-hydroxy-1-(phenylmethyl)propyl]-7-ethyl-1,3-dimethyl-3,4-dihydro-1H-[1,2,5]thiadiazepino[3,4,5-hi]indole-9-carboxamide 2,2-dioxide formate salt] showed a pIC50 greater than 5.00.
Compound `CCc1cn2c3c(cc(C(=O)N[C@@H](Cc4ccccc4)[C@H](O)CNC(C)(C)c4cccc(C(F)(F)F)c4)cc13)N(C)S(=O)(=O)C2` [Example E79, 6-Ethyl-N-[(1S,2R)-2-hydroxy-3-({1-methyl-1-[3-(trifluoromethyl)phenyl]ethyl}amino)-1-(phenylmethyl)propyl]-1-methyl-1H-[1,2,5]thiadiazino[3,4,5-hi]indole-8-carboxamide 2,2-dioxide formate salt] has a pIC50 greater than 5.00.
Compound `CCc1cn2c3c(cc(C(=O)N[C@@H](Cc4ccccc4)[C@H](O)CNCc4cccc(C(F)(F)F)c4)cc13)N(C)S(=O)(=O)C2` [Example E83, 6-Ethyl-N-[(1S,2R)-2-hydroxy-1-(phenylmethyl)-3-({[3-(trifluoromethyl)phenyl]methyl}amino)propyl]-1-methyl-1H-[1,2,5]thiadiazino[3,4,5-hi]indole-8-carboxamide 2,2-dioxide formate salt] has a pIC50 greater than 5.00.
In the case of `CCc1cn2c3c(cc(C(=O)N[C@@H](Cc4ccccc4)[C@H](O)CNC(C)(C)CCCC(C)C)cc13)NS(=O)(=O)C2` [Example E75, 6-Ethyl-N-{(1S,2R)-2-hydroxy-1-(phenylmethyl)-3-[(1,1,5-trimethylhexyl)amino]propyl}-1H-[1,2,5]thiadiazino[3,4,5-hi]indole-8-carboxamide 2,2-dioxide formate salt], the pIC50 was greater than 5.00.
Work on `CCc1cn2c3c(cc(C(=O)N[C@@H](Cc4cccc(Cl)c4)[C@H](O)CNC4CCOCC4)cc13)N(C)S(=O)(=O)CC2` [Example E33, N-[(1S,2R)-1-[(3-Chlorophenyl)methyl]-2-hydroxy-3-(tetrahydro-2H-pyran-4-ylamino)propyl]-7-ethyl-1-methyl-3,4-dihydro-1H-[1,2,5]thiadiazepino[3,4,5-hi]indole-9-carboxamide 2,2-dioxide formate salt] yielded a pIC50 greater than 5.00.
`CCc1cn2c3c(cc(C(=O)N[C@@H](Cc4ccccc4)[C@H](O)CNC(C)(C)c4cccc(OC)c4)cc13)N(C)S(=O)(=O)C2` [Example E81, 6-Ethyl-N-[(1S,2R)-2-hydroxy-3-({1-methyl-1-[3-(methyloxy)phenyl]ethyl}amino)-1-(phenylmethyl)propyl]-1-methyl-1H-[1,2,5]thiadiazino[3,4,5-hi]indole-8-carboxamide 2,2-dioxide formate salt] was tested, and the pIC50 was greater than 5.00.
Compound `CCc1cn2c3c(cc(C(=O)N[C@@H](Cc4ccccc4)[C@H](O)CNCc4cccc(C(F)(F)F)c4)cc13)N(CC(=O)OC(C)(C)C)S(=O)(=O)CC2` [Example E73, 1,1-Dimethylethyl [7-ethyl-9-({[(1S,2R,)-2-hydroxy-1-(phenylmethyl)-3-({[3-(trifluoromethyl)phenyl]methyl}amino)propyl]amino}carbonyl)-2,2-dioxido-3,4-dihydro-1H-[1,2,5]thiadiazepino[3,4,5-hi]indol-1-yl]acetate formate salt] has a pIC50 greater than 5.00.
With `CC(C)c1cn2c3c(cc(C(=O)N[C@@H](Cc4ccccc4)[C@H](O)CNC4CC4)cc13)N(C)S(=O)(=O)CC2` [Example E24, N-[(1S,2R)-3-(Cyclopropylamino)-2-hydroxy-1-(phenylmethyl)propyl]-1-methyl-7-(1-methylethyl-3,4-dihydro-1H-[1,2,5]thiadiazepino[3,4,5-hi]indole-9-carboxamide 2,2-dioxide formate salt] the pIC50 was greater than 5.00.
Compound `CC(C)c1cn2c3c(cc(C(=O)N[C@@H](Cc4ccccc4)[C@H](O)CNC4CCOCC4)cc13)N(C)S(=O)(=O)CC2` [Example E25, N-[(1S,2R)-2-Hydroxy-1-(phenylmethyl)-3-(tetrahydro-2H-pyran-4-ylamino)propyl]-1-methyl-7-(1-methylethyl)-3,4-dihydro-1H-[1,2,5]thiadiazepino[3,4,5-hi]indole-9-carboxamide 2,2-dioxide formate salt] has a pIC50 greater than 5.00.
In the case of `CCc1cn2c3c(cc(C(=O)N[C@@H](Cc4ccccc4)[C@H](O)CNCc4cnn(CC(F)(F)F)c4)cc13)N(C)S(=O)(=O)CC2.O=CO` [Example E74, 7-Ethyl-N-[(1S,2R)-2-hydroxy-1-(phenylmethyl)-3-({[1-(2,2,2-trifluoroethyl)-1H-pyrazol-4-yl]methyl}amino)propyl]-1-methyl-3,4-dihydro-1H-[1,2,5]thiadiazepino[3,4,5-hi]indole-9-carboxamide 2,2-dioxide formate salt], the pIC50 was greater than 5.00.
`CCc1cn2c3c(cc(C(=O)N[C@@H](Cc4ccccc4)[C@H](O)CNCc4cncc(C(=O)NC)c4)cc13)N(C)S(=O)(=O)CC2.O=CO` [Example E97, 7-Ethyl-N-[(1S,2R)-2 hydroxy-3-[({5-[(methylamino)carbonyl]-3-pyridinyl}methyl)amino]-1-(phenylmethyl)propyl]-1-methyl-3,4-dihydro-1H-[1,2,5]thiadiazepino[3,4,5-hi]indole-9-carboxamide 2,2-dioxide formate salt] was tested, and the pIC50 was greater than 5.00.
Compound `CCc1cn2c3c(cc(C(=O)N[C@@H](Cc4ccccc4)[C@H](O)CNC4CCC4)cc13)N(C)S(=O)(=O)CC2` [Example E40, N-[(1S,2R)-3-(Cyclobutylamino)-2-hydroxy-1-(phenylmethyl)propyl]-7-ethyl-1-methyl-3,4-dihydro-1H-[1,2,5]thiadiazepino[3,4,5-hi]indole-9-carboxamide 2,2-dioxide] has a pIC50 greater than 5.00.
Compound `CCCc1cn2c3c(cc(C(=O)N[C@@H](Cc4ccccc4)[C@H](O)CNCc4cccc(C(F)(F)F)c4)cc13)N(CC)S(=O)(=O)CC2` [Example E48, 1-Ethyl-N-[(1S,2R)-2-hydroxy-1-(phenylmethyl)-3-({[3-(trifluoromethyl)phenyl]methyl}amino)propyl]-7-propyl-3,4-dihydro-1H-[1,2,5]thiadiazepino[3,4,5-hi]indole-9-carboxamide 2,2-dioxide formate salt] has a pIC50 greater than 5.00.
Work on `CCc1cn2c3c(cc(C(=O)N[C@@H](Cc4ccccc4)[C@H](O)CNCc4cnn(CC)c4)cc13)N(C)S(=O)(=O)C(C)C2.O=CO` (stereo partly drawn) [Example E16, 7-Ethyl-N-[(1S,2R)-3-{[(1-ethyl-1H-pyrazol-4-yl)methyl]amino}-2-hydroxy-1-(phenylmethyl)propyl]-1,3-dimethyl-3,4-dihydro-1H-[1,2,5]thiadiazepino[3,4,5-hi]indole-9-carboxamide 2,2-dioxide formate salt] yielded a pIC50 greater than 5.00.
